Source: ChEMBL document CHEMBL5143696, “Discovery of novel benzothiophene derivatives as potent and narrow spectrum inhibitors of DYRK1A and DYRK1B” (Bioorg Med Chem Lett, 2022)
pIC50, pKi: −log10 of the molar value.

Chains of the proteins cited; added tags and fusions are not shown.
UniProt Q9Y463, whole entry: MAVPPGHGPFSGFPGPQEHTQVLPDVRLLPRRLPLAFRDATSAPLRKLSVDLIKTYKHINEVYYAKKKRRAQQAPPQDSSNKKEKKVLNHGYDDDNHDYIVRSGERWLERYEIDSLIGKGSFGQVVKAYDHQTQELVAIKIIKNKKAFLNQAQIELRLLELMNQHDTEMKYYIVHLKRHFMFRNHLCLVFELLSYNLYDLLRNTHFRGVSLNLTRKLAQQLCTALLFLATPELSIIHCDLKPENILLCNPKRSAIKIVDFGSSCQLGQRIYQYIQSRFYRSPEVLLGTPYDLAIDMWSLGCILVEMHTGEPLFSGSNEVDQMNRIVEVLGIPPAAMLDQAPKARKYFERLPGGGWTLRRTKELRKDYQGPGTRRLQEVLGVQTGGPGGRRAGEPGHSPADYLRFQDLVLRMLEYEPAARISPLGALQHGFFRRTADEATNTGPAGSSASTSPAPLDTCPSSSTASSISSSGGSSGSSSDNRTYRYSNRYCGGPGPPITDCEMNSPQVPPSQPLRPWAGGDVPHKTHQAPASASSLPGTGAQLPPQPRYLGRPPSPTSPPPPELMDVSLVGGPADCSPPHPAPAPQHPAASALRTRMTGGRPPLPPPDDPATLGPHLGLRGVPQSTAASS

What was measured:
[1] = biological target: T1, Dual specificity tyrosine-phosphorylation-regulated kinase 1B (Homo sapiens, UniProt Q9Y463); experiment: Inhibition of human DYRK1B incubated for 130 mins in presence of ATP by ADP-Glo kinase assay
[2] = biological target: T1, Dual specificity tyrosine-phosphorylation-regulated kinase 1B; experiment: Inhibition of NanoLuc-fused human DYRK1B expressed in HEK293T cells using Nano-Glo as substrate incubated for 2 hrs by NanoBRET assay; format: cell-based

With `COc1cc(N2CCN(C)CC2)ccc1Nc1nccc(-c2cn(C)c3cnccc23)n1` the pKi [1] was 7.95 and the pIC50 [2] was 7.09.
